Laboratory results taken from the supplement of paper PMC8728848.
This is one part of the list.

Columns and labels:
Assay in all cases: glycan array binding signal (z-score within array); higher = stronger binding
Details in all cases: glycan notation: IUPAC condensed, linker removed
[1] = biological target: GalNAc(b1-3)Gal
Summary of the method: (§1)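 Arrays were curated from the Consortium for Functional Glycomics database, 3228 in total, and kept only where the protein sequence was available. Binding is expressed as a within-array Z-score. This score was averaged across arrays of the same protein sequence at different concentrations or buffers and across linkers, and negative values can be read as non-binding.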

[2] = biological target: GalNAc(b1-3)Gal(a1-4)Gal(b1-4)GlcNAc
Summary of the method: as §1

[3] = biological target: GalNAc(b1-3)Gal(a1-4)Gal(b1-4)GlcNAc(b1-3)Gal(b1-4)Glc
Summary of the method: as §1

[4] = biological target: GalNAc(b1-3)Gal(a1-6)Gal(b1-4)Glc
Summary of the method: as §1

[5] = biological target: GalNAc(b1-3)GalNAc
Summary of the method: as §1

[6] = biological target: GalNAc(b1-3)GlcNAc
Summary of the method: as §1

[7] = biological target: GalNAc(b1-4)Gal(b1-4)Glc
Summary of the method: as §1

[8] = biological target: GalNAc(b1-4)GlcNAc
Summary of the method: as §1

[9] = biological target: GalNAc(b1-4)GlcNAc(b1-2)Man
Summary of the method: as §1

[10] = biological target: GalNAc(b1-4)GlcNAc(b1-2)Man(a1-3)[GalNAc(b1-4)GlcNAc(b1-2)Man(a1-6)]Man(b1-4)GlcNAc(b1-4)GlcNAc
Summary of the method: as §1

[11] = biological target: GalNAc(b1-4)GlcNAc(b1-3)GalNAc(b1-4)GlcNAc
Summary of the method: as §1

[12] = biological target: GalNAc(b1-4)GlcNAc6S
Summary of the method: as §1

[13] = biological target: GalNAc(b1-6)GalNAc
Summary of the method: as §1

[14] = biological target: GalNAc3S(b1-4)GlcNAc
Summary of the method: as §1

[15] = biological target: GalNAc3S(b1-4)GlcNAc3S
Summary of the method: as §1

[16] = biological target: GalNAc3S(b1-4)[Fuc(a1-3)]GlcNAc
Summary of the method: as §1

[17] = biological target: GalNAc4S6S(b1-4)GlcNAc
Summary of the method: as §1

[18] = biological target: GalNAc6S(b1-4)GlcNAc
Summary of the method: as §1

[19] = biological target: Glc(a1-4)Glc
Summary of the method: as §1

[20] = biological target: Glc(a1-4)Glc(a1-4)Glc(a1-4)Glc
Summary of the method: as §1

[21] = biological target: Glc(a1-6)Glc(a1-6)Glc
Summary of the method: as §1

[22] = biological target: Glc(a1-6)Glc(a1-6)Glc(a1-6)Glc
Summary of the method: as §1

[23] = biological target: Glc(b1-4)Glc
Summary of the method: as §1

[24] = biological target: Glc(b1-6)Glc
Summary of the method: as §1

[25] = biological target: GlcA(b1-3)Gal
Summary of the method: as §1

[26] = biological target: GlcA(b1-3)GlcNAc
Summary of the method: as §1

[27] = biological target: GlcA(b1-6)Gal
Summary of the method: as §1

[28] = biological target: GlcA3S(b1-3)Gal(b1-4)GlcNAc(b1-2)Man
Summary of the method: as §1

[29] = biological target: GlcA3S(b1-3)Gal(b1-4)GlcNAc(b1-3)Gal(b1-4)Glc
Summary of the method: as §1

[30] = biological target: GlcNAc(a1-3)Gal(b1-4)GlcNAc
Summary of the method: as §1

[31] = biological target: GlcNAc(a1-4)Gal(b1-3)GlcNAc
Summary of the method: as §1

[32] = biological target: GlcNAc(a1-4)Gal(b1-4)GalNAc
Summary of the method: as §1

[33] = biological target: GlcNAc(a1-4)Gal(b1-4)GlcNAc
Summary of the method: as §1

[34] = biological target: GlcNAc(a1-4)Gal(b1-4)GlcNAc(b1-3)Gal(b1-4)Glc
Summary of the method: as §1

[35] = biological target: GlcNAc(a1-4)Gal(b1-4)GlcNAc(b1-3)Gal(b1-4)GlcNAc
Summary of the method: as §1

[36] = biological target: GlcNAc(a1-4)Gal(b1-4)GlcNAc(b1-3)Gal(b1-4)GlcNAc(b1-3)Gal(b1-4)GlcNAc
Summary of the method: as §1

[37] = biological target: GlcNAc(a1-4)Gal(b1-4)GlcNAc(b1-3)Gal(b1-4)[Fuc(a1-3)]GlcNAc(b1-3)Gal(b1-4)[Fuc(a1-3)]GlcNAc
Summary of the method: as §1

[38] = biological target: GlcNAc(a1-6)Gal(b1-4)GlcNAc
Summary of the method: as §1

B1: SynCAM (Mus musculus) (protein)
chain: MASAVLPSGSQCAAAAAVAAAAAPPGLRLRLLLLLLSAAALIPTGDGQNLFTKDVTVIEGEVATISCQVNKSDDSVIQLLNPNRQTIYFRDFRPLKDSRFQLLNFSSSELKVSLTNVSISDEGRYFCQLYTDPPQESYTTITVLVPPRNLMIDIQKDTAVEGEEIEVNCTAMASKPATTIRWFKGNKELKGKSEVEEWSDMYTVTSQLMLKVHKEDDGVPVICQVEHPAVTGNLQTQRYLEVQYKPQVHIQMTYPLQGLTREGDAFELTCEAIGKPQPVMVTWVRVDDEMPQHAVLSGPNLFINNLNKTDNGTYRCEASNIVGKAHSDYMLYVYDPPTTIPPP
- glycan array binding signal (z-score) [1]: -0.352
- glycan array binding signal (z-score) [2]: 2.45
- glycan array binding signal (z-score) [3]: -0.598
- glycan array binding signal (z-score) [4]: -0.163
- glycan array binding signal (z-score) [5]: -0.452
- glycan array binding signal (z-score) [6]: -0.132
- glycan array binding signal (z-score) [7]: -0.187
- glycan array binding signal (z-score) [8]: 2.71
- glycan array binding signal (z-score) [9]: 0.118
- glycan array binding signal (z-score) [10]: -0.617
- glycan array binding signal (z-score) [11]: -0.925
- glycan array binding signal (z-score) [12]: -0.392
- glycan array binding signal (z-score) [13]: 0.335
- glycan array binding signal (z-score) [14]: -0.566
- glycan array binding signal (z-score) [15]: 0.408
- glycan array binding signal (z-score) [16]: -0.316
- glycan array binding signal (z-score) [17]: -0.215
- glycan array binding signal (z-score) [18]: -0.096
- glycan array binding signal (z-score) [19]: -0.476
- glycan array binding signal (z-score) [20]: 0.087
- glycan array binding signal (z-score) [21]: -1.23
- glycan array binding signal (z-score) [22]: -0.37
- glycan array binding signal (z-score) [23]: -0.753
- glycan array binding signal (z-score) [24]: -0.181
- glycan array binding signal (z-score) [25]: -0.854
- glycan array binding signal (z-score) [26]: -0.282
- glycan array binding signal (z-score) [27]: -0.287
- glycan array binding signal (z-score) [28]: -0.452
- glycan array binding signal (z-score) [29]: -0.697
- glycan array binding signal (z-score) [30]: 0.779
- glycan array binding signal (z-score) [31]: -0.742
- glycan array binding signal (z-score) [32]: 1.3
- glycan array binding signal (z-score) [33]: -1.14
- glycan array binding signal (z-score) [34]: -0.804
- glycan array binding signal (z-score) [35]: -0.509
- glycan array binding signal (z-score) [36]: -0.69
- glycan array binding signal (z-score) [37]: -0.398
- glycan array binding signal (z-score) [38]: -0.421
